Sequences of proteins named here, by UniProt entry; tags and fusion partners are left off. A change or cut given only in a name is not applied to a line headed by its entry.
UniProt Q8W4L5: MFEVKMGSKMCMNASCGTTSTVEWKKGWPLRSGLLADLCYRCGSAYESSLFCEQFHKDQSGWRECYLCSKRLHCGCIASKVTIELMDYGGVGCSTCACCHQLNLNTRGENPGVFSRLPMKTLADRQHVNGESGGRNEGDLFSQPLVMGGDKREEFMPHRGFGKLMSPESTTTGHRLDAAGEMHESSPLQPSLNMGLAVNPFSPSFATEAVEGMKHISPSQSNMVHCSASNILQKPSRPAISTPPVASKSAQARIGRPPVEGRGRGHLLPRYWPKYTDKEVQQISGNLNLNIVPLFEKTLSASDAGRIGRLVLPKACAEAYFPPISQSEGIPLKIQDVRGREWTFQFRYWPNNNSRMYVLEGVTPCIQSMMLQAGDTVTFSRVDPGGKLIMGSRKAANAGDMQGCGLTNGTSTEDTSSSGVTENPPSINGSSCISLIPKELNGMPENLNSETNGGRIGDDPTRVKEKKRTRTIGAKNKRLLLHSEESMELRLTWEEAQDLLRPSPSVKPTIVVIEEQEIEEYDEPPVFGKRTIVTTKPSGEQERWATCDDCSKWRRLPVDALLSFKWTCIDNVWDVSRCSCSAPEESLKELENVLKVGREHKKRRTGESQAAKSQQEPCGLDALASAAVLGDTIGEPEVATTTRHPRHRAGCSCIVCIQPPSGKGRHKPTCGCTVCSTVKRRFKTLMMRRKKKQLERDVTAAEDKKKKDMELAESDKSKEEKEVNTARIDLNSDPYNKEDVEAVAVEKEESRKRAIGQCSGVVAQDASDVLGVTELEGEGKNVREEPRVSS

In PMC12152480:

How the values were obtained:
[1] = biological target: GST-VAL1B3 (Arabidopsis thaliana) (UniProt Q8W4L5); test: competition with a labelled probe; conditions: 10 mM Tris pH 7.5, 50 mM KCl, 1 mM DTT, 2.5% glycerol, 5 mM MgCl2, 0.025% NP-40, 20 uL, 2 uL of 1 uM probe, 25 min room temperature, 1.6% agarose gel in 0.5x TBE, recombinant protein, protein details: GST
GST (free tag control) = test: EMSA; conditions: 10 mM Tris pH 7.5, 50 mM KCl, 1 mM DTT, 2.5% glycerol, 5 mM MgCl2, 0.025% NP-40, 20 uL; 2 uL of 1 uM probe; 25 min room temperature; 1.6% agarose gel in 0.5x TBE; recombinant protein; protein details: GST; label: TYE665 on sense strand (5')
[2] = biological target: GST-VAL1B3 (Arabidopsis thaliana) (UniProt Q8W4L5); test: EMSA; conditions: 10 mM Tris pH 7.5, 50 mM KCl, 1 mM DTT, 2.5% glycerol, 5 mM MgCl2, 0.025% NP-40, 20 uL; 2 uL of 1 uM probe; 25 min room temperature; 1.6% agarose gel in 0.5x TBE; recombinant protein; protein details: GST; label: TYE665 on sense strand (5')

TCAATTTTGTTTTCTTGTGATGTGCATGGAGTAAGAAGAGTGAAAGCAGA (double strand) [BOP2-B3-2 unlabeled competitor]
binding result ([1]; 25x and 50x molar excess against labeled BOP2 probe): binds

TTAATCATTCATTCTGCGATTTTGCATGATATTAGTAATCGCATATTTGT (double strand) [BOP1-TYE665-dsDNA (BOP1-B3-2)]
binding result (GST (free tag control)): no binding
binding result [2]: binds

TCAATTTTGTTTTCTTGTGATGTGCATGGAGTAAGAAGAGTGAAAGCAGA (double strand) [BOP2-TYE665-dsDNA (BOP2-B3-2)]
binding result [2]: binds

TTAATCATTCATTCTGCGATTTTGCATGATATTAGTAATCGCATATTTGT (double strand) [BOP1-B3-2 unlabeled competitor]
binding result ([1]; 25x and 50x molar excess against labeled BOP1 probe): binds

For at least one entry, the source does not settle the construct or the ends of the probe. For some assays here: Negatives hold for the conditions tested. For some assays here: At least one verdict rests on a figure or table, not on a statement of the authors.
